These are yes or no findings as the source states them, for the method shown.
Columns and labels:
FtsQ_(50–276) (E. coli) [1] = target: FtsQ_(50–276) (E. coli) (UniProt P06136); test: SEC; analytical gel filtration, Superdex 200 10/300 GL, buffer B (20 mM Tris-HCl pH 8.0, 200 mM NaCl), 0.5 mL/min; low concentrations (6.8–22.2 μM); apparent Stokes radius compared with radii calculated from models; both purified
FtsQ_(50–276) (E. coli) [2] = target: FtsQ_(50–276) (E. coli) (UniProt P06136); test: SEC; analytical gel filtration, Superdex 200 10/300 GL, buffer B (20 mM Tris-HCl pH 8.0, 200 mM NaCl), 0.5 mL/min; high concentrations (101–370 μM); apparent Stokes radius compared with radii calculated from models; both purified

Sequences of proteins named here, by UniProt entry; tags and fusion partners are left off. Residues count along the entry.
UniProt P06136, residues 50-276: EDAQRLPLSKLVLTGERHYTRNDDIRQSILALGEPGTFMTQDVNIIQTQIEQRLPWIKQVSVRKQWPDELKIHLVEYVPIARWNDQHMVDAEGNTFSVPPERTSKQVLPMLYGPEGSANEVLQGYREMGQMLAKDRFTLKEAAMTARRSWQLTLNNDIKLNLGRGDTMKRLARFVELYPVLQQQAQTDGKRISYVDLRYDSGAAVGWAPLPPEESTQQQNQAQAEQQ

- binding (FtsQ_(50–276) (E. coli) [1]): no binding (tested: 18.5 μM)
- binding (FtsQ_(50–276) (E. coli) [2]): no binding (tested: 370 μM)
Substance: FtsQ_(50–276) (from UniProt P06136 50-276) (domain or fragment)

— publication PMC6305486
